# From the supplement of paper PMC6411743
# ± gives the standard deviation of the averaged measurements. This is a selection; strong and weak results do not stand in their true shares.
# Tests used:
# Assay in all cases: NP40-soluble protein abundance relative to vehicle (solubility fold change) (ratio); higher = more soluble protein in presence of ATP
# [1] = target: T1, UniProt Q6PJG2 and related entries
# T1 sequence (whole entry): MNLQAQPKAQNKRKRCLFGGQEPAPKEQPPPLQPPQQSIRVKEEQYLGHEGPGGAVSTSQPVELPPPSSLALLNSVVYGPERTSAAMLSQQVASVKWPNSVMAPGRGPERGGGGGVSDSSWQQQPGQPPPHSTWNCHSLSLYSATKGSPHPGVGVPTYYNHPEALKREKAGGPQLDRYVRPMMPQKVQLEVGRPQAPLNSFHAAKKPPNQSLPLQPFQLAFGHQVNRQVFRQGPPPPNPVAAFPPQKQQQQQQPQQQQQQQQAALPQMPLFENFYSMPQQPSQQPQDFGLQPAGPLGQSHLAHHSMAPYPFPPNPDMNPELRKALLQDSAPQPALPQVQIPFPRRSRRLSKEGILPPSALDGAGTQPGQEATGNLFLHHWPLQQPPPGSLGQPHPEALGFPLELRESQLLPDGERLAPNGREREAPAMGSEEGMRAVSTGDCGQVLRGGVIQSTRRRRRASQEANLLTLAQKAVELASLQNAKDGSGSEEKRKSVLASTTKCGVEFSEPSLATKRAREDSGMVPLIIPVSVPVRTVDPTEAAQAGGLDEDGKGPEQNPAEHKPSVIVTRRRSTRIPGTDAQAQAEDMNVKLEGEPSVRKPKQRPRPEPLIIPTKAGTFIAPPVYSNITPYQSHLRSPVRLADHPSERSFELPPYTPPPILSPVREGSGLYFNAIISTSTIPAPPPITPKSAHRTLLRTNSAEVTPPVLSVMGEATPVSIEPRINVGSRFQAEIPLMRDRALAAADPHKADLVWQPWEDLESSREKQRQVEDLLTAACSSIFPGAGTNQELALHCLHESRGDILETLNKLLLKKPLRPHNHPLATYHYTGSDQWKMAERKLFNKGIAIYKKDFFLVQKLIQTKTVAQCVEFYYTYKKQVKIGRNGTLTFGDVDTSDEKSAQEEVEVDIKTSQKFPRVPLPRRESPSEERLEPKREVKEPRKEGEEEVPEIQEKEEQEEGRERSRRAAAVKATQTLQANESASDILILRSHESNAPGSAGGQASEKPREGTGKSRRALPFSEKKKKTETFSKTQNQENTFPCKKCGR
# How it was run: (§1)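 Across three independent experiments, values are fold changes against the detergent-processed vehicle for each replicate, based on vsn-normalised intensities. The samples were Jurkat crude lysate treated with eight concentrations (0.1 to 10 mM) for 10 min at room temperature and then 3 min at 37 °C. Lysate was solubilised with 0.8% NP40 and benzonase, ultracentrifuged, and the supernatant analysed by TMT-labelled LC-MS/MS.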
# [2] = target: T2, UniProt Q6UW63
# T2 sequence (whole entry): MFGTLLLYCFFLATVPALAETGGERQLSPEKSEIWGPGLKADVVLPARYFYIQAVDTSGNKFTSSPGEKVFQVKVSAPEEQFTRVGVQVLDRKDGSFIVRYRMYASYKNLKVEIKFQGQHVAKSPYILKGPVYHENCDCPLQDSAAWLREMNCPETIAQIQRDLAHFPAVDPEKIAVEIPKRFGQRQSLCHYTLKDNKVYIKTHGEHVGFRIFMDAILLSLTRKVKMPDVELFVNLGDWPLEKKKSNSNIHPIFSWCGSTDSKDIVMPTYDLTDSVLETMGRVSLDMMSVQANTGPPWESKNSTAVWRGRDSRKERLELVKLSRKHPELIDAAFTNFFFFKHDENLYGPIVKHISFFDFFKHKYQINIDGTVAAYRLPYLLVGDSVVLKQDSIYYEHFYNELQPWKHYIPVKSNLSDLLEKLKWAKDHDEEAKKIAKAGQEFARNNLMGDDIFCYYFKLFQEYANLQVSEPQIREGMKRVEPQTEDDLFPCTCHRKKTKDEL
# How it was run: as §1
# [3] = target: T3, UniProt Q6UX04
# T3 sequence (whole entry): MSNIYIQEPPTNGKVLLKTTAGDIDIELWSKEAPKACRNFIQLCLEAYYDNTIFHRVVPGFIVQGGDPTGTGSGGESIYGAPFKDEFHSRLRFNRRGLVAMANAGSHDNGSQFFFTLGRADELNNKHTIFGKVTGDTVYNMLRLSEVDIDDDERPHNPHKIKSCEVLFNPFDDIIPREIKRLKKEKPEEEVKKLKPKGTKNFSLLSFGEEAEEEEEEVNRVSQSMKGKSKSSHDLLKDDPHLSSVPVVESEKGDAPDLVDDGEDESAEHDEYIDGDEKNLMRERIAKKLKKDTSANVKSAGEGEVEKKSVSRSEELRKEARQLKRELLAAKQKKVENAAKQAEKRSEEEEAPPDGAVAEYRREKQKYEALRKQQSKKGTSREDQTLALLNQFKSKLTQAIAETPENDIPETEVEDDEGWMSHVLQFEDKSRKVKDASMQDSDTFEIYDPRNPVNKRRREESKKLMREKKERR
# How it was run: as §1
# [4] = target: T4, UniProt Q6ZS86 and related entries
# T4 sequence (whole entry): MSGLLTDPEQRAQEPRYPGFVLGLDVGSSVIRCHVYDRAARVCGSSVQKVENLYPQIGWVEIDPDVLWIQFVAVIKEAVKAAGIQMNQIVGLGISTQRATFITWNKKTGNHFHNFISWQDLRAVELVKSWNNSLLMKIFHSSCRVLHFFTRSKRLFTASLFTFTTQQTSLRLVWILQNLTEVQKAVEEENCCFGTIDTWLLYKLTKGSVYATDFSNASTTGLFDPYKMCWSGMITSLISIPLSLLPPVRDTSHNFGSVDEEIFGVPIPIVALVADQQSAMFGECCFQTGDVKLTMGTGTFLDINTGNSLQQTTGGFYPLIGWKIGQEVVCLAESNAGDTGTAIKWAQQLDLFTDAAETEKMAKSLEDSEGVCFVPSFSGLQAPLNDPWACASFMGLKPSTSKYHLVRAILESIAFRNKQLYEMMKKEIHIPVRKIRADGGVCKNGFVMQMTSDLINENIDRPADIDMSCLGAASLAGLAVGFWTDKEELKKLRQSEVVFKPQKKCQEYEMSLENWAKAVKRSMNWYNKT
# How it was run: as §1
# [5] = target: T5, UniProt Q76FK4 and related entries
# T5 sequence (whole entry): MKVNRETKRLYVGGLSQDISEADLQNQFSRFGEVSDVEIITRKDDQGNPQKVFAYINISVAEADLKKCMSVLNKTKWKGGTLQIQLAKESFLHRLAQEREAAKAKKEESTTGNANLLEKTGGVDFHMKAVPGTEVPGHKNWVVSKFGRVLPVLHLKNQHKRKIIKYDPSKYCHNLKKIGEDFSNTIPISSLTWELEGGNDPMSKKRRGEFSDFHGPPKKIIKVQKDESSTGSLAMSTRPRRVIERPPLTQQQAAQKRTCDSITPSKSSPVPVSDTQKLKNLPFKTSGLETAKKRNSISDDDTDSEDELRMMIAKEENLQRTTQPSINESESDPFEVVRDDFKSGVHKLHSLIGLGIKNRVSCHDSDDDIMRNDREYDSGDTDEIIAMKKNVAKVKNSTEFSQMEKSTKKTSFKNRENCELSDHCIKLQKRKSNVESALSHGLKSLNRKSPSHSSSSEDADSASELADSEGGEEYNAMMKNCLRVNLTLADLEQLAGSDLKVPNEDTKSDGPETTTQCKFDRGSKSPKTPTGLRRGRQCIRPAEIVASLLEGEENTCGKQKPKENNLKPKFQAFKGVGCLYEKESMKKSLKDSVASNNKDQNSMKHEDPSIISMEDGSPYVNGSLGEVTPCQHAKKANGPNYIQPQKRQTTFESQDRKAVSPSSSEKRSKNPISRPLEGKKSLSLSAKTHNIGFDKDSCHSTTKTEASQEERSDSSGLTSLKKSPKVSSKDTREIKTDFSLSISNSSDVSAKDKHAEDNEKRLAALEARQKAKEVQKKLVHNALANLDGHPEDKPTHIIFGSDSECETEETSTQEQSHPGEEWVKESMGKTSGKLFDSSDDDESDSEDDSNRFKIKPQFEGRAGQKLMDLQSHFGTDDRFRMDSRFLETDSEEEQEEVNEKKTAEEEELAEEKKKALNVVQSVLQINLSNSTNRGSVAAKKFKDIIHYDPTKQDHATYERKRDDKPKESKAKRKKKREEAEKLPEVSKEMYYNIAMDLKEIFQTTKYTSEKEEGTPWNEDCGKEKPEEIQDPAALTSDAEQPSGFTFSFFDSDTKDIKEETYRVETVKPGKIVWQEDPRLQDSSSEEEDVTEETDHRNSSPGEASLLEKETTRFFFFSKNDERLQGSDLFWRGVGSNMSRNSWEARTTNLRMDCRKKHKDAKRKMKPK
# How it was run: as §1
smiles,measurement,setting,value
Nc1ncnc2c1ncn2[C@@H]1O[C@H](COP(=O)(O)OP(=O)(O)OP(=O)(O)O)[C@@H](O)[C@H]1O [adenosine triphosphate],NP40-soluble protein abundance,[1]; concentration: 1mM,1.11 ± 0.047
same,NP40-soluble protein abundance,[1]; concentration: 2mM,1.13 ± 0.029
same,NP40-soluble protein abundance,[1]; concentration: 4mM,1.15 ± 0.051
same,NP40-soluble protein abundance,[1]; concentration: 6mM,1.14 ± 0.079
same,NP40-soluble protein abundance,[1]; concentration: 8mM,1.12 ± 0.034
same,NP40-soluble protein abundance,[1]; concentration: 10mM,1.15 ± 0.046
same,NP40-soluble protein abundance,[2]; concentration: 1mM,0.986 ± 0.07
same,NP40-soluble protein abundance,[2]; concentration: 2mM,0.965 ± 0.051
same,NP40-soluble protein abundance,[2]; concentration: 4mM,0.96 ± 0.097
same,NP40-soluble protein abundance,[2]; concentration: 6mM,0.967 ± 0.14
same,NP40-soluble protein abundance,[2]; concentration: 8mM,0.945 ± 0.089
same,NP40-soluble protein abundance,[2]; concentration: 10mM,0.963 ± 0.021
same,NP40-soluble protein abundance,[3]; concentration: 1mM,1.05 ± 0.046
same,NP40-soluble protein abundance,[3]; concentration: 2mM,1.05 ± 0.03
same,NP40-soluble protein abundance,[3]; concentration: 4mM,1.02 ± 0.047
same,NP40-soluble protein abundance,[3]; concentration: 6mM,1.1 ± 0.043
same,NP40-soluble protein abundance,[3]; concentration: 8mM,1.04 ± 0.029
same,NP40-soluble protein abundance,[3]; concentration: 10mM,1.046 ± 0.01
same,NP40-soluble protein abundance,[4]; concentration: 1mM,1.12 ± 0.15
same,NP40-soluble protein abundance,[4]; concentration: 2mM,1.11 ± 0.22
same,NP40-soluble protein abundance,[4]; concentration: 4mM,1.09 ± 0.16
same,NP40-soluble protein abundance,[4]; concentration: 6mM,0.992 ± 0.18
same,NP40-soluble protein abundance,[4]; concentration: 8mM,0.934 ± 0.11
same,NP40-soluble protein abundance,[4]; concentration: 10mM,1 ± 0.054
same,NP40-soluble protein abundance,[5]; concentration: 1mM,1.02 ± 0.04
same,NP40-soluble protein abundance,[5]; concentration: 2mM,1.09 ± 0.021
same,NP40-soluble protein abundance,[5]; concentration: 4mM,1.139 ± 0.011
same,NP40-soluble protein abundance,[5]; concentration: 6mM,1.24 ± 0.018
same,NP40-soluble protein abundance,[5]; concentration: 8mM,1.21 ± 0.015
same,NP40-soluble protein abundance,[5]; concentration: 10mM,1.28 ± 0.022

# Given tab-delimited: entries from further up.
smiles	measurement	setting	value
Nc1ncnc2c1ncn2[C@@H]1O[C@H](COP(=O)(O)OP(=O)(O)OP(=O)(O)O)[C@@H](O)[C@H]1O [adenosine triphosphate]	NP40-soluble protein abundance	[2]; concentration: 4mM	0.96 ± 0.097
same	NP40-soluble protein abundance	[2]; concentration: 6mM	0.967 ± 0.14
